Record: PubChem BioAssay AID1259314 (Drosophila RNAi Screening Center, 2017)
Purpose: 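Modifiers of manganese chloride toxicity in fly cells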 (primary screen). Cell system: Drosophila S2R+ cells. Knock-down reagent: long dsRNA against Drosophila genes. Time to read-out: 5 days (4 days knock-down, then 1 day metal exposure). Treatment: manganese chloride added to 15 mM for 24 hours. Measured: 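Cellular ATP measured by luciferase light, scaled to the plate mean, averaged across replicates and z-scored over plates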. Scale: mean ATP z-score: higher = more ATP than the plate average, more viable cells under manganese. Call rule: 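a mean ATP z-score past 1.5 in either direction is called active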. Meaning of the calls: active = strong ATP change, up or down; inactive = no strong ATP change.
The whole screen tested about 3,100 reagents; this is a random part of them. 289 of them (9.3%) count as active. 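Active includes both higher and lower ATP than plate average; check the z-score sign for direction.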 The numbers tell different reagents against one gene apart. Names joined by + are all predicted targets of the reagent. No sequences are given here. The record does not give: the amount of reagent.

| gene | reagent | mean ATP z-score | call |
| --- | --- | --- | --- |
| senju | 1 | -0.732 | inactive |
| senju | 2 | -0.653 | inactive |
| CG5404 | 1 | -0.97 | inactive |
| CG5404 | 2 | -0.201 | inactive |
| VhaM9.7-a (Vacuolar H[+] ATPase M9.7 subunit a) | 1 | -0.103 | inactive |
| VhaM9.7-a (Vacuolar H[+] ATPase M9.7 subunit a) | 2 | -0.303 | inactive |
| CG6231 | 1 | -0.208 | inactive |
| Scamp | 1 | 0.235 | inactive |
| Scamp | 2 | -0.349 | inactive |
| subdued | 1 | -0.138 | inactive |
| subdued | 2 | 0.111 | inactive |
| mgl (Megalin) | 1 | 0.0965 | inactive |
| mgl (Megalin) | 2 | 2.16 | active |
| CG15553 | 1 | -0.0149 | inactive |
| CG15553 | 2 | -0.185 | inactive |
| Mdr50 (Multi drug resistance 50) | 1 | -0.94 | inactive |
| Mdr50 (Multi drug resistance 50) | 2 | -0.781 | inactive |
| CG33233 | 1 | -0.359 | inactive |
| CG33233 | 2 | 0.89 | inactive |
| CG8086 | 1 | -0.678 | inactive |
| CG8086 | 2 | 0.34 | inactive |
| CG8086 | 3 | 0.795 | inactive |
| NijB (Ninjurin B) | 1 | -0.304 | inactive |
| NijB (Ninjurin B) | 2 | -0.021 | inactive |
| Or9a (Odorant receptor 9a) | 1 | -0.239 | inactive |
| Or9a (Odorant receptor 9a) | 2 | -0.782 | inactive |
| Cnx14D + Cnx99A | 1 | 0.214 | inactive |
| CG32280 | 1 | -0.565 | inactive |
| CG32280 | 2 | 0.399 | inactive |
| CG10226 | 1 | -0.0651 | inactive |
| CG4025 | 1 | 1.16 | inactive |
| stet (stem cell tumor) | 1 | 0.0765 | inactive |
| stet (stem cell tumor) | 2 | -0.144 | inactive |
| nrv1 (nervana 1) | 1 | -1.64 | active |
| Or22b (Odorant receptor 22b) | 1 | 5.76 | active |
| Or22b (Odorant receptor 22b) | 2 | -0.391 | inactive |
| CG7309 | 1 | -1.19 | inactive |
| CG7309 | 2 | 0.259 | inactive |
| VGlut (Vesicular glutamate transporter) | 1 | -0.283 | inactive |
| VGlut (Vesicular glutamate transporter) | 2 | -0.523 | inactive |
| Pex12 (Peroxin 12) | 1 | -1.51 | active |
| Pex12 (Peroxin 12) | 2 | 2.85 | active |
| CG31600 | 1 | 0.157 | inactive |
| CG31600 | 2 | -1.29 | inactive |
| CG15706 | 1 | 0.00517 | inactive |
| CG15706 | 2 | 0.833 | inactive |
| nAChRalpha2 (nicotinic Acetylcholine Receptor alpha2) | 1 | -0.673 | inactive |
| nAChRalpha2 (nicotinic Acetylcholine Receptor alpha2) | 2 | -0.403 | inactive |
| stol (stolid) | 1 | 0.219 | inactive |
| stol (stolid) | 2 | -1.26 | inactive |
| CG6126 | 1 | -0.654 | inactive |
| CG6126 | 2 | -0.649 | inactive |
| CG1636 + CG15343 | 1 | 1.92 | active |
| ETHR | 1 | 0.0908 | inactive |
| ETHR | 2 | -0.171 | inactive |
| CG4615 | 1 | 1.26 | inactive |
| CG4615 | 2 | -1.39 | inactive |
| CG4615 | 3 | 1.85 | active |

Continued (9 carried over from the part before).
| gene | reagent | mean ATP z-score | call |
| --- | --- | --- | --- |
| stol (stolid) | 2 | -1.26 | inactive |
| CG6126 | 1 | -0.654 | inactive |
| CG6126 | 2 | -0.649 | inactive |
| CG1636 + CG15343 | 1 | 1.92 | active |
| ETHR | 1 | 0.0908 | inactive |
| ETHR | 2 | -0.171 | inactive |
| CG4615 | 1 | 1.26 | inactive |
| CG4615 | 2 | -1.39 | inactive |
| CG4615 | 3 | 1.85 | active |
| aralar1 | 1 | -0.457 | inactive |
| aralar1 | 2 | -1.06 | inactive |
| vir (virilizer) | 1 | -1.38 | inactive |
| vir (virilizer) | 2 | -1 | inactive |
| CCKLR-17D1 (Cholecystokinin-like receptor at 17D1) | 1 | 0.554 | inactive |
| CCKLR-17D1 (Cholecystokinin-like receptor at 17D1) | 2 | 0.09 | inactive |
| CCKLR-17D1 (Cholecystokinin-like receptor at 17D1) | 3 | 0.197 | inactive |
| Ephrin | 1 | 0.457 | inactive |
| Ephrin | 2 | 0.33 | inactive |
| Ephrin | 3 | -0.726 | inactive |
| CG2930 | 1 | 1.16 | inactive |
| CG2930 | 2 | -1.49 | inactive |
| CG33110 | 1 | -0.47 | inactive |
| CG33110 | 2 | 1.33 | inactive |
| Ir64a (Ionotropic receptor 64a) | 1 | -0.735 | inactive |
| Ir64a (Ionotropic receptor 64a) | 2 | -0.668 | inactive |
| kug (kugelei) | 1 | 0.116 | inactive |
| CG31221 | 1 | 0.351 | inactive |
| CG31221 | 2 | -0.0478 | inactive |
| CG17751 | 1 | 1.44 | inactive |
| CG17751 | 2 | 0.772 | inactive |
| CG42816 | 1 | -1.05 | inactive |
| NtR | 1 | 0.334 | inactive |
| NtR | 2 | 2.37 | active |
| Sdr (Secreted decoy of InR) | 1 | -0.511 | inactive |
| Sdr (Secreted decoy of InR) | 2 | 0.218 | inactive |
| Sdr (Secreted decoy of InR) | 3 | 0.33 | inactive |
| CG33673 | 1 | -0.38 | inactive |
| CG33673 | 2 | 0.628 | inactive |
| Cox10 (Cytochrome c oxidase assembly factor 10) | 1 | -0.146 | inactive |
| Cox10 (Cytochrome c oxidase assembly factor 10) | 2 | -1.35 | inactive |
| Or98b (Odorant receptor 98b) | 1 | -0.363 | inactive |
| PXo (P[[i]]-sensitive XPR1 orthologue) | 1 | -1.39 | inactive |
| crb (crumbs) | 1 | -0.589 | inactive |
| crb (crumbs) | 2 | 0.305 | inactive |
| Shal (Shaker cognate l) | 1 | -0.128 | inactive |
| Shal (Shaker cognate l) | 2 | -0.582 | inactive |
| CG34011 | 1 | 0.0833 | inactive |
| CG34011 | 2 | -0.443 | inactive |
| Mgat2 | 1 | -0.992 | inactive |
| Mgat2 | 2 | -0.439 | inactive |
| 5-HT2A (5-hydroxytryptamine (serotonin) receptor 2A) | 1 | -0.155 | inactive |
| 5-HT2A (5-hydroxytryptamine (serotonin) receptor 2A) | 2 | 0.0882 | inactive |
| Gr85a (Gustatory receptor 85a) | 1 | -0.458 | inactive |
| Gr85a (Gustatory receptor 85a) | 2 | -0.587 | inactive |
| NPFR (Neuropeptide F receptor) | 1 | -0.603 | inactive |
| Sec22 (Secretory 22) | 1 | 0.949 | inactive |
| Sec22 (Secretory 22) | 2 | 0.209 | inactive |
| chk (chaski) | 1 | -0.00191 | inactive |
| Gr9a (Gustatory receptor 9a) | 1 | -0.517 | inactive |
| Gr9a (Gustatory receptor 9a) | 2 | -0.112 | inactive |
| Mvl (Malvolio) | 1 | -0.411 | inactive |
| Mvl (Malvolio) | 2 | -0.103 | inactive |
